The source of these data is publication PMC10933477.

Results are given in words; binding and its absence hold for the method and conditions named. Binding seen in cells or lysates may run through a third protein. Some entries that bind do so weakly or less than the wild type.

For experiment [1], the target named is T1, Imd (immune deficiency) (Drosophila melanogaster) (UniProt Q7K4Z4).
T1 sequence: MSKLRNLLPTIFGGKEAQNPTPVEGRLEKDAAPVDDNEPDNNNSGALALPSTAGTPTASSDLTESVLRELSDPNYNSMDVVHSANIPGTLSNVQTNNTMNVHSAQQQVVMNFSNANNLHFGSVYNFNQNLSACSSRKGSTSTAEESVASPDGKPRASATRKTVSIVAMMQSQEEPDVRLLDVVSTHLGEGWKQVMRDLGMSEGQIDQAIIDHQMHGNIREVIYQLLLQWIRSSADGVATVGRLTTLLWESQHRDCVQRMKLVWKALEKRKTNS
Nature of the experiment: co-IP; S2 cells transfected with expression plasmids for 48 h; lysis in 150 mM NaCl, 50 mM Tris-HCl pH 7.5, 10% glycerol, 0.5% Triton X-100, 1 mM PMSF; anti-Flag M2 or anti-Myc affinity gel, 4 °C, 4 h; washed three times with 500 mM NaCl buffer; Western blot. (Immunoblotting shows a protein as a band on a membrane.)

Experiment [2] addresses T2, dTak1 (Drosophila TGF-beta activating kinase 1) (Drosophila melanogaster) (UniProt Q9V3Q6).
T2 sequence: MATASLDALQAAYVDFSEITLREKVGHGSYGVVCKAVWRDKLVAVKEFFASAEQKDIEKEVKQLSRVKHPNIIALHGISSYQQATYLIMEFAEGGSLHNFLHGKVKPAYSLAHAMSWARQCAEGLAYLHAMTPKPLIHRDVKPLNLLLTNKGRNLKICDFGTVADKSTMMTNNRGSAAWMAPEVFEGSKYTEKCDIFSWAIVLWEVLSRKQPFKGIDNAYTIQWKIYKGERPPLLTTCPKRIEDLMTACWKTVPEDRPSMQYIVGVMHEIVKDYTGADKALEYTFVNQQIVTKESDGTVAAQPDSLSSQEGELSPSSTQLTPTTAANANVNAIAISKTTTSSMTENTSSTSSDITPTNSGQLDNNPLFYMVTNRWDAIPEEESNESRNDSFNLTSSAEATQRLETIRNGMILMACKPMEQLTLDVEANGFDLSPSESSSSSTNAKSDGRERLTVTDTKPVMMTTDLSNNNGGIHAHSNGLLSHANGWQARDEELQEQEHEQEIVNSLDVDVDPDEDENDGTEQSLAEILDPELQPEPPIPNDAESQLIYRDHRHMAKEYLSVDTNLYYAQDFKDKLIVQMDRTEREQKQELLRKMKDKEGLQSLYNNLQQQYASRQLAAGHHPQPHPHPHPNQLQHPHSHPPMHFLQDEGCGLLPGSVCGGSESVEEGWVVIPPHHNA
Described as above.

B1: eIF3f1 (eukaryotic translation initiation factor 3 subunit f1), full length (protein, UniProt Q9VN50 1-280)
chain: MSALNLTVRVHPVVLFQVVDAFERRNADSHRVIGTLLGSVDKGVVEVTNCFCVPHKEHDDQVEAELSYALDMYDLNRKVNSNESVVGWWATGNDVTNHSSVIHEYYARECNNPVHLTVDTSLQGGRMGLRAYVCIQLGVPGGKSGCMFTPIPVELTSYEPETFGLKLLQKTVGVSPAHRPKTVPPMLDLAQISEASTKLQSLLDLILKYVDDVIAHKVTPDNAVGRQLLDLIHSVPHMTHEQFTQMFNANVRNLLLVITLSQLIKTQLQLNEKLTFLPTA
As to B1, the values for the binding result in experiment [1] and in experiment [2] were “no binding” and “binds”, respectively.

B2: eIF3f1^JAMM (N-terminal JAMM domain of eIF3f1) (domain or fragment, UniProt Q9VN50 1-137)
chain: MSALNLTVRVHPVVLFQVVDAFERRNADSHRVIGTLLGSVDKGVVEVTNCFCVPHKEHDDQVEAELSYALDMYDLNRKVNSNESVVGWWATGNDVTNHSSVIHEYYARECNNPVHLTVDTSLQGGRMGLRAYVCIQL
With B2, the binding result in experiment [2] was “binds”.
